Measured values as given in article PMC12680179.
Results are given in words; binding and its absence hold for the method and conditions named. Binding seen in cells or lysates may run through a third protein. Some entries that bind do so weakly or less than the wild type.

The chains behind the UniProt entries cited, without tags or fusion partners.
UniProt Q13464: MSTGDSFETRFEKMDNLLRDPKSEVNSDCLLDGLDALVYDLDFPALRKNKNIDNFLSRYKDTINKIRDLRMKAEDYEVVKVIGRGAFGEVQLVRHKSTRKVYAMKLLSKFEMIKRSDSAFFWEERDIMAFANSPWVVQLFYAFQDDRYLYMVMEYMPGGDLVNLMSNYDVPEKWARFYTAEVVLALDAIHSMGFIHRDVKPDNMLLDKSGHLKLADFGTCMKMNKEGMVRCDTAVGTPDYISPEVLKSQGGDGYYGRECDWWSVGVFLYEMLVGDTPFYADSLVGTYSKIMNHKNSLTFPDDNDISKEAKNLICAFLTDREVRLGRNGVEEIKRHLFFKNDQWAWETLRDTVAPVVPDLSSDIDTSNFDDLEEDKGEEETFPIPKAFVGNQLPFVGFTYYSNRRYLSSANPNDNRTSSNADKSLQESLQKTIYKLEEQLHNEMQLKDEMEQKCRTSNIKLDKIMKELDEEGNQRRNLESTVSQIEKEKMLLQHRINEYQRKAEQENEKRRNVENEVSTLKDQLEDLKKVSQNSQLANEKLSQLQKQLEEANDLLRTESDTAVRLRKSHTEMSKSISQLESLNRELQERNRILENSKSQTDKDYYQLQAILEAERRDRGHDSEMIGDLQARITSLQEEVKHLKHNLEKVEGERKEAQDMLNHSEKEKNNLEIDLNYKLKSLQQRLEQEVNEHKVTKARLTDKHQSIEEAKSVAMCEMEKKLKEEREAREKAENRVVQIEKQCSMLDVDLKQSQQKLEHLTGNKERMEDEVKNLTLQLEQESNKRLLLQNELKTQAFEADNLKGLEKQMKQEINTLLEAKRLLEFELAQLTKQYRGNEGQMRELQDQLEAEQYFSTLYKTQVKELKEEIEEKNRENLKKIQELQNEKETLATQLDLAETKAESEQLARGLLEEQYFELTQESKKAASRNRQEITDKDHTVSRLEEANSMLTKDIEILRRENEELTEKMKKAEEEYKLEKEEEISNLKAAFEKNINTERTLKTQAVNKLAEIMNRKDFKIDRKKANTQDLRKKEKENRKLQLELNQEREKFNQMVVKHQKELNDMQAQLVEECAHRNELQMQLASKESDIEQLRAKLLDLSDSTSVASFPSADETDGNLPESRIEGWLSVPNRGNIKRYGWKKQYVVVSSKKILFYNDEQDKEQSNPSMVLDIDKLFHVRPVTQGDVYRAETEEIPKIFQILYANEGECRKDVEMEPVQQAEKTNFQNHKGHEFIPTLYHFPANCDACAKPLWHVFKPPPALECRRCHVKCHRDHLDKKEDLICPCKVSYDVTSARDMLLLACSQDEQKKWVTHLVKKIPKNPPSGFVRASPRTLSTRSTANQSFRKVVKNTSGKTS
UniProt Q00987: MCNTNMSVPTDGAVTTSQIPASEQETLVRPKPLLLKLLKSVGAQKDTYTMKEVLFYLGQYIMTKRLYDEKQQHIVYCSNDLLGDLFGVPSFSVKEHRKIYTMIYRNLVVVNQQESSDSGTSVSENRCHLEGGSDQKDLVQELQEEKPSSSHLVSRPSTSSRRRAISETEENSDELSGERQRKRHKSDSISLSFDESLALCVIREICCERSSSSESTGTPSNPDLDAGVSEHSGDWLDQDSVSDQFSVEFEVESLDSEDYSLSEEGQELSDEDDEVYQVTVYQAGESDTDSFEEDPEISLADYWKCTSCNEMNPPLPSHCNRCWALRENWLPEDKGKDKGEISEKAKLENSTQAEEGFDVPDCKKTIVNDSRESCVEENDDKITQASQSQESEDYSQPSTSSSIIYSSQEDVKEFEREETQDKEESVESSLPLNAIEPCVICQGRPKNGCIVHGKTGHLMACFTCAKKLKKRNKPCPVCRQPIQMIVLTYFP

Target: ROCK1 (Rho-associated protein kinase 1) (human (endogenous in Swan 71)) (UniProt Q13464)
Assay: co-IP; Swan 71 cells, with or without PS-NPs exposure (24 h treatment); lysis in RIPA buffer with PMSF; lysate pre-cleared with Protein A and Protein G agarose beads; primary or isotype control antibodies overnight at 4 °C; Western blot detection

In the case of “MDM2 (Mouse double minute 2 homolog) (from UniProt Q00987 1-491)”, the binding is reported as “binds”.
